In US9873733B2, “Anti-staphylococcal antibodies” (priority 2012, dated 2018):
Some entries share one result that the patent states for a list of compounds.

System: S. aureus SA113 spa-mprF double deletion mutant
Assay: Cytochrome C repulsion assay, MprF deletion mutant
Type: cell-based, Staphylococcus aureus
Conditions: negative controls

B1: M-C4.1: human IgG1 against cyclic peptide, loop 4 of MprF; VH1A kappa 1; VL Seq. ID: 44, VH Seq. ID: 45 (antibody, V domains shown)
VH: QVQLVQSGAEVKKPGSSVKVSCKASGGTFNSYAISWVRQAPGQGLEWMGGIIPIFGMATYAQKFQGRVTITADESTSTAYMELSSLRSEDTAVYYCARSLFGRAYWGQGTLVTVSS
VL: DIQMTQSPSSLSASVGDRVTITCRASQSISSFLAWYQQKPGKAPKLLIYDASSLQSGVPSRFSGSGSGTDFTLTISSLQPEDFATYYCLQADSTSYTFGQGTKVEIKRT
modifications: MC41 VH; MC41 VL
notes: human IgG1 against cyclic peptide, loop 4 of MprF; VH1A kappa 1; ID: 45
Reduced repulsion of cytochrome C: 55-75%
